## Binding screen against folded nucleic acids

Source: the ROBIN nucleic acid binder screens (doi:10.1002/anie.202211358).

Targets (5′ to 3′):
PreQ1: PreQ1 riboswitch RNA pseudoknot, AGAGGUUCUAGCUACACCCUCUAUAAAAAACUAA. From B. subtilis. Hit rate about 0.7% of about 24,000 compounds.
SAM-II: SAM-II riboswitch RNA pseudoknot, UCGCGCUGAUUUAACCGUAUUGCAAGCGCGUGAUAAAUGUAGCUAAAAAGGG. Hit rate about 1% of about 21,000 compounds.

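Each compound is printed as two spots on a slide made to bind it covalently, so it has no test concentration; the read-out is fluorescence of the bound, labelled oligonucleotide. For the PreQ1, TPP and SAM-II riboswitches the laboratory earlier reported (doi:10.1038/s41467-019-09493-3) 1 µM RNA, 2 h, and a rule that included a mean Z-score above 3 (spot signal-to-noise against the whole library), a score well above that on a control array, and duplicate spots agreeing (coefficient of variation under 100). The data file gives only the calls; its cut-offs may differ, and compounds hitting several targets are kept. A missing hit is not proof of no binding, and a hit is not a measured affinity.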
“active” means called a hit, “inactive” means screened and not called a hit.
Compounds were drawn at random from those tested, without regard to their results.
A target missing from an entry has no call listed here.

For O=C(CCCn1cncn1)N1C[C@H](CO)C[C@H](CN2CCOCC2)C1 the calls were PreQ1: inactive; SAM-II: inactive.
For Cc1cccn2c(CC(=O)N[C@@H]3CC[C@@H](N)C3)cnc12 the calls were PreQ1: inactive; SAM-II: inactive.
For COc1ccccc1-n1cnc2cc(NCc3ccc(N(C)C)cc3)ccc21 the calls were PreQ1: inactive; SAM-II: inactive.
For CCOC(=O)N1CCN(Cc2nc3c(c(=O)n(C)c(=O)n3C)n2CCCO)CC1 the calls were PreQ1: inactive; SAM-II: inactive.
For O=C(Cn1cccn1)N1CC[C@@H](c2ccc3ccccc3c2)[C@H](O)C1 the calls were PreQ1: inactive; SAM-II: inactive.
For Cc1ccccc1NC1=NS(=O)(=O)c2ccccc21 the calls were PreQ1: inactive; SAM-II: inactive.
For OCCNCCNCc1ccc2[nH]c3ccccc3c2c1 the calls were PreQ1: inactive; SAM-II: inactive.
For CCc1cc(C(C)NCc2c[nH]nc2-c2ccc(F)cc2)on1 (stereo not given) the calls were PreQ1: inactive; SAM-II: inactive.
For CC(C)[C@@H](O)C(=O)N1CCC2(CCC(=O)N(CCc3ccncc3)C2)CC1 the calls were PreQ1: inactive; SAM-II: inactive.
For O=C1NCCNC12CCN(Cc1cc3c(cc1Cl)OCO3)CC2 the calls were PreQ1: inactive; SAM-II: inactive.
For Cc1ccccc1Cn1c(C(=O)O)c(CNC(C)C)c2ccccc21 the calls were PreQ1: inactive.
For COc1ccc(F)c(-c2cnc(N)nc2)c1 the calls were PreQ1: inactive; SAM-II: inactive.
For COc1ncccc1C(=O)N1C[C@H](O)[C@@H](N2CCOCC2)C1 the calls were PreQ1: inactive; SAM-II: inactive.
For O=C(c1ccc(Nc2nccc(-c3cc4ccccc4s3)n2)cc1)N1CCC(N2CCCC2)CC1 the calls were PreQ1: inactive; SAM-II: inactive.
For OCCCc1nc2ccccc2n1CCOc1ccc(Cl)cc1 the calls were PreQ1: inactive; SAM-II: inactive.
For CC(C)(C)NC1=NCCNC(c2ccccc2)=C1.CS(=O)(=O)O the calls were PreQ1: inactive; SAM-II: inactive.
For COCCC1(CO)CCCN(C(=O)CCS(C)(=O)=O)C1 (stereo not given) the calls were PreQ1: inactive; SAM-II: inactive.
For CCN(CC)C(=O)C1C(=O)N(CCO)C2(C)CC1c1ccccc1O2 (stereo not given) the calls were PreQ1: inactive; SAM-II: inactive.
For CCOC(=O)c1sc2nc3c(cc2c1N)COC(C(C)C)C3 (stereo not given) the calls were PreQ1: inactive; SAM-II: inactive.
For COc1c2c(nc3occc13)C(CCC(C)(C)O)(OC)C(O)CC2 (stereo not given) the calls were PreQ1: inactive; SAM-II: inactive.
For CCn1c(CC2CCNCC2)nn(Cc2noc(-c3ccccc3)n2)c1=O the calls were PreQ1: inactive; SAM-II: inactive.
For CNC(=O)c1cc(Oc2ccc(NC(=O)Nc3ccc(Cl)c(C(F)(F)F)c3)cc2)ccn1 the calls were PreQ1: inactive; SAM-II: inactive.
For O=C(O)c1ccc(NCc2nc3ccccc3n2Cc2ccccc2)cc1 the calls were PreQ1: inactive; SAM-II: inactive.

2 of the entries, repeated:

structure,PreQ1,SAM-II
O=C(c1ccc(Nc2nccc(-c3cc4ccccc4s3)n2)cc1)N1CCC(N2CCCC2)CC1,inactive,inactive
CCN(CC)C(=O)C1C(=O)N(CCO)C2(C)CC1c1ccccc1O2 (stereo not given),inactive,inactive